# From patent US20110281802A1, “COMPOSITION FOR TREATMENT AND PREVENTION OF HAIR LOSS AND PREMATURE GRAYING OF HAIR” (Immudiagnostik AG, priority 2007, published 2011)
# Chains of the proteins cited; added tags and fusions are not shown. Lines headed by an entry give the natural chain unless they say otherwise; changes in a name come on top.
# UniProt P06454: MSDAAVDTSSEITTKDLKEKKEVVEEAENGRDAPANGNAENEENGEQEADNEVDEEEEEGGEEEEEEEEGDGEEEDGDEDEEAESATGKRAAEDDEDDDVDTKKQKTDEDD
# System: human hair follicles
# Assay: Thymosin α1 ELISA, amount in human hair follicles (assay #5)
substance,measurement,setting,value
"Thymosin alpha-1 (SDAAVDTSSEITTKDLKEKKEVVEEAEN; Thymosin alpha-1; UniProt P06454 2-29, looked up) [TA1, 28aa thymic peptide which modulates lymphocyte differentiation]",TA1 concentration in hair follicle sample (ELISA),"Sample #5a, extrapolated data",2.604 ng/mL
same,TA1 concentration in hair follicle sample (ELISA),Sample #5b,5.003 ng/mL
same,TA1 concentration in hair follicle sample (ELISA),"Sample #5c, extrapolated data",0.493 ng/mL
